## Screening data, single-dose tests

Protein sequences, listed by entry. Tags and fused reporters are not part of them. Residues count along the entry.
UniProt Q4DA54, 1-478: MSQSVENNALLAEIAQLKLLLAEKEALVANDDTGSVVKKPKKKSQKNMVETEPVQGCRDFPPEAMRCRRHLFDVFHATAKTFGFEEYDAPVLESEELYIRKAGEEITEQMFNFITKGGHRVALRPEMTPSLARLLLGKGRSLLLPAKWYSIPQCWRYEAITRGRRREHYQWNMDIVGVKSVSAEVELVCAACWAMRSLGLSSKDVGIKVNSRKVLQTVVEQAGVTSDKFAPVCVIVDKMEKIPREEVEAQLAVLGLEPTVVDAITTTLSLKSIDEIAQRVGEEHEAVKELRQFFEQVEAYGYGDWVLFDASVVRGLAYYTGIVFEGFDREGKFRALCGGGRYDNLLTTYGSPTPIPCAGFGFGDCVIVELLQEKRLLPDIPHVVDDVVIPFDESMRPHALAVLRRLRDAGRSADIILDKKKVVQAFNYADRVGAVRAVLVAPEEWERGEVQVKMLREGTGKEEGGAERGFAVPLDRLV
UniProt P9WNZ1, whole entry: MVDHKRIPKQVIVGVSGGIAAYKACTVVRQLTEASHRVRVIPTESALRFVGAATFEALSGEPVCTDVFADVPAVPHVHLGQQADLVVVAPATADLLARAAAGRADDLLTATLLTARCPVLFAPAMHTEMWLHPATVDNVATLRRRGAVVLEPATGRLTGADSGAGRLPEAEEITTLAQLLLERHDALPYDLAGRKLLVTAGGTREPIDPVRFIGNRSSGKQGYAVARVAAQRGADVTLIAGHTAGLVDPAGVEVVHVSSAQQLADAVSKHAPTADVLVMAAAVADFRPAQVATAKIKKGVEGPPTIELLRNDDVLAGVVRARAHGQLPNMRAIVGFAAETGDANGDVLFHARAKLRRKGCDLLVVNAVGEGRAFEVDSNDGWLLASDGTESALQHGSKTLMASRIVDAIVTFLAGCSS
UniProt P9WPC5, whole entry: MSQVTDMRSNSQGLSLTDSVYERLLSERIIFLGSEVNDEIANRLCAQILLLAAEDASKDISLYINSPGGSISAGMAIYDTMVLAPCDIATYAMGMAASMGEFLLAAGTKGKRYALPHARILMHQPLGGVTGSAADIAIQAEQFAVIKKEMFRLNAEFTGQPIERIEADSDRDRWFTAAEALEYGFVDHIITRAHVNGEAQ
UniProt P9WPC3, whole entry partner: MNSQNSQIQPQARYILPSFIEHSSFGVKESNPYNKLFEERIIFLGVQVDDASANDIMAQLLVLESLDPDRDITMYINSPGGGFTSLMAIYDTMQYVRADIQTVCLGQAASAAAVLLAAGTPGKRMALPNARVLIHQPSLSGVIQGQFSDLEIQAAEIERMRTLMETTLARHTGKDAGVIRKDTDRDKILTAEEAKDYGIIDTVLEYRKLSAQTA
UniProt Q8IDJ8, 1-583: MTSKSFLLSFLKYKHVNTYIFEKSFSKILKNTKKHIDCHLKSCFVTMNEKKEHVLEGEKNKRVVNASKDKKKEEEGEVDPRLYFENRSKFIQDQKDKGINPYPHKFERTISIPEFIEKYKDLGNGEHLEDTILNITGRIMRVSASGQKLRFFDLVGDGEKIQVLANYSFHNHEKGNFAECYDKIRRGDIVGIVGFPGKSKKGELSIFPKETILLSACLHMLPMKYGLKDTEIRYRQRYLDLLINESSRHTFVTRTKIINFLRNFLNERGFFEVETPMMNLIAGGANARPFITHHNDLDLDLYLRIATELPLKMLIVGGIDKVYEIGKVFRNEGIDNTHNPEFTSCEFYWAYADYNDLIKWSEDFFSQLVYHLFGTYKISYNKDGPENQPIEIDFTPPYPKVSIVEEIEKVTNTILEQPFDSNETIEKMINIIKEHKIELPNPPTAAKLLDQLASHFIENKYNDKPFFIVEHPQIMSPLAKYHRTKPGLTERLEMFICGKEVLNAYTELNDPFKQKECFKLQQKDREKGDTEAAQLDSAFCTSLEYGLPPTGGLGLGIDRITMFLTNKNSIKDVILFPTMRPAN

Results are given as percent effect. How 0% and 100% were set is not recorded. Most values in the screen are low, and negative values occur. Compounds were drawn at random from those tested, without regard to their results. Two or more numbers in one place are separate tests of the same structure; such repeats can differ widely.

A: 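Cell assay of Leishmania donovani living inside macrophages; the read-out is not stated. Compounds at 30 µM. Higher reads as stronger inhibition (inferred: compounds with an IC50 in retests scored well above the rest). About 69,000 compounds were tested under these conditions; 1.5% (about 1,000) showed 50% or more at least once.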
B: 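Enzyme assay of histidyl-tRNA synthetase; the read-out is not stated. Target: Histidine-tRNA ligase, Trypanosoma cruzi CL Brener (UniProt Q4DA54). Concentration: 30 µM. Higher reads as stronger inhibition (inferred: compounds with an IC50 in retests scored well above the rest). Size under these conditions: about 69,000 compounds, about 31 of them at 50% or above in at least one test.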
C: 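Enzyme assay of CoaBC with a phosphate dye (Biomol Green) read at 650 nm. Target: Coenzyme A biosynthesis protein CoaBC, Mycobacterium tuberculosis (UniProt P9WNZ1). Concentration: 30 µM. Higher reads as stronger inhibition, judged from the few compounds that gave an IC50. Most strong results did not repeat in a second test. Size under these conditions: about 67,000 compounds, about 40 of them at 50% or above in at least one test.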
D: 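Protease assay of ClpP1P2, read by the AMC dye that it sets free. Target: ClpP1P2, Mycobacterium tuberculosis (UniProt P9WPC5 and UniProt P9WPC3). Tested at 50 µM. Direction is inferred from only a few compounds that gave an IC50; most scored high, so higher reads as stronger inhibition. Most other retested compounds had strongly negative values. About 69,000 compounds were tested under these conditions; 0.015% (about 10) showed 50% or more at least once.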
E: 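Lysine-tRNA ligase, Plasmodium falciparum 3D7 (UniProt Q8IDJ8). Enzyme assay of the cytosolic lysyl-tRNA synthetase in 384-well plates, read by luminescence. Compounds at 30 µM. Higher reads as stronger inhibition, judged from the few compounds that gave an IC50. Size under these conditions: about 69,000 compounds, about 49 of them at 50% or above in at least one test.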

Result for O=C(C1CCOCC1)N1CCO[C@H]2[C@H](Oc3cccnc3)CC[C@@H]21 was B: 5.263%; C: -3.822%; D: -13.31%; E: 6.505%.
Result for CS(=O)(=O)c1cccc(S(=O)(=O)NC(=O)CC2CCCC2)c1 was A: 5.966%; B: 4.459%; D: -4.879%; E: 3.644%.
Result for O=C(O)C(F)(F)F.[H][C@@]12CCN(CC3CCOCC3)[C@@]1([H])CCN2C(=O)c1cccn1C was A: 14.84% & 13.61%.
Result for CCO[C@H]1CO[C@@]2(CCCN(Cc3scnc3C)C2)C1.O=C(O)C(F)(F)F was A: 14.01%.
Result for CC(Cn1cccn1)NCc1cnc(N2CCCC2)nc1 (stereo not drawn) was A: 6.002%; B: 3.659%; C: 2.405%; D: -4.127%; E: 2.248%.
Result for N#Cc1ccccc1CNC(C(=O)N1CCOCC1)c1ccccc1 (stereo not drawn) was A: 8.788%; B: 3.922%; C: 3.415%; D: 6.793%; E: 6.513%.
Result for CCOCC(=O)Nc1nccn1Cc1ccc(Br)cc1 was A: 5.98%; B: 5.747%; C: 1.2%; D: 10.02%; E: 2.159%.
Result for N#Cc1ncn(CCC(=O)Nc2cc(Cl)ccc2Cl)n1 was A: 24.49%; B: 9.045%; C: 13.09%; D: 11.87%; E: 4.394%.
Result for c1csc(-c2noc(C3CNC3)n2)c1 was B: 3.704%; C: -5.765%; D: 0.7006%; E: 9.271%.
Result for CC(C)Oc1ccc(C(=O)N2CC[C@H](O)[C@@H](n3ccnc3)CC2)cc1 was A: 8.331% & 22.43%; B: 8.889%; C: -7.99%; D: -0.8109%; E: 1.503%.
Result for Cc1cc(C[C@@H]2COC[C@@H]2NC(=O)CN2CCCC2)on1 was A: 28.1%; B: 1.653%; C: -5.757%; D: -6.916%; E: 1.658%.
Result for CS(=O)(=O)N1CCC(Oc2ccc(C(=O)NCCC(N)=O)cc2Cl)CC1 was A: -23.21%; B: -3.175%; C: 13.21%; D: -2.122%; E: -5.198%.
Result for Cc1cc(-c2ccncc2)ccc1OCC(N)=O was A: 22.13%; B: -1.571%; C: 8.848%; D: -8.125%; E: 2.975%.
Result for CCN(CC1CCOC1)C(=O)c1ccn(-c2cc(C)ccc2OC)n1 (stereo not drawn) was A: 13.02%; B: -1.026%; C: -4.133%; D: -5.845%; E: 0.1066%.
Result for Cc1noc(C)c1CN1CCn2cc(CNc3ccccn3)nc2C1.O=C(O)C(F)(F)F.O=C(O)C(F)(F)F was A: 24.67%.
Result for [H][C@]12CC[C@]([H])(CN(C3CCOCC3)C1)N(Cc1cscn1)C2=O was A: -36.48%.
Result for CC(C)(C)c1csc(CN2CCN(S(=O)(=O)c3cccnc3)CC2)n1 was A: 12.56%; B: -6.024%; C: -2.799%; D: -0.2466%; E: 6.551%.
Result for CS(=O)(=O)N1CCCCCC1C1CCN(c2ncccn2)CC1 (stereo not drawn) was A: -15.33%; B: 1.141%; C: -0.7979%; D: 6.97%; E: -2.292%.
Result for CCS(=O)(=O)N1C[C@@H](Oc2ccccn2)[C@H]2OCCC[C@H]21 was B: -7.527%; C: 4%; D: 10.05%; E: -5.466%.
Result for O=C(c1cccc(Cl)c1)C1CCCN(c2nnc(C3CCC3)o2)C1 (stereo not drawn) was A: 22.77%; B: 12.77%; C: -0.4016%; D: 7.083%; E: 0.6777%.
Result for CC(C)(C)c1c[nH]c([C@@H]2COCCN2C2CCOCC2)n1 was A: -13.66%; B: 1.087%; C: 12.14%; D: 2.913%; E: 4.767%.
Result for CC(=O)NCc1cc2n(n1)CCN(Cc1cccc(CCN)c1)C2 was A: 5.101%; B: 6.098%; C: -2.911%; D: -2.582%; E: 6.86%.
Result for O=C(O)C(F)(F)F.O=c1cc(Cn2cncn2)nc2n1CCCN(Cc1ccc(F)cc1)C2 was A: 29.52%.
Result for NC(=O)[C@@H]1CCCN1C(=O)c1csc(-c2ccc(C(F)(F)F)cc2)n1 was A: 24.55%; B: 3.863%; C: 2.751%; D: -7.287%; E: 3.559%.
Result for [H][C@@]12CCN(C(=O)NC)CC[C@]1(C(=O)Nc1ccccc1)CCN2C was A: 11.56%.

The last 3 entries again:

Result for O=C(O)C(F)(F)F.O=c1cc(Cn2cncn2)nc2n1CCCN(Cc1ccc(F)cc1)C2 was A: 29.52%.
Result for NC(=O)[C@@H]1CCCN1C(=O)c1csc(-c2ccc(C(F)(F)F)cc2)n1 was A: 24.55%; B: 3.863%; C: 2.751%; D: -7.287%; E: 3.559%.
Result for [H][C@@]12CCN(C(=O)NC)CC[C@]1(C(=O)Nc1ccccc1)CCN2C was A: 11.56%.

Source: ChEMBL document CHEMBL3988442, “University of Dundee, Small-Polar-MMV Screening Library” (2021).